Measured values from patent US10689415B2 (YEDA RESEARCH AND DEVELOPMENT COMPANY LTD., priority 2006, dated 2020).

Tests used:
[1] = general procedure: Fmoc solid-phase peptide synthesis; Fmoc-Lys(Boc)-Wang resin; 2-chlorotrityl chloride resin; HOBt/PyBOP/DIEA; HOBt/DIC; details: for conjugation yield: conjugation step; for isolated mass / isolated yield: whole synthesis
C6-glioma xenografts = experiment: In vivo MRI of C6 glioma xenografts with contrast agent; set-up: species or system CD1 nude male mice; details: 15 μmol/kg, about 10 min after injection

(GRGDSP)4K
conjugation yield [1]: 41%

Palladium 3^1-oxo-15- methoxycarbonylmethyl- Rhodobacteriochlorin 13^1-(2- sulfoethyl)amide-17^3-(RGD- 4C)amide potassium salt
conjugation yield [1]: 18%

Palladium 3^1-oxo-15- methoxycarbonylmethyl- Rhodobacteriochlorin 13^1-(2- sulfoethyl)amide-17^3- (cycloRGDfK)amide potassium salt
conjugation yield [1]: 23%

Manganese(III) 13^2-OH-Bacteriopheophorbide a [Compound 9]
tumor/normal relaxivity ratio (C6-glioma xenografts): ~1.4

Palladium 3^1-oxo-15- methoxycarbonylmethyl- Rhodobacteriochlorin-13^1-(2,3- dihydroxypropyl)amide-17^3- (cycloRGDfK)amide
conjugation yield [1]: 50%

3^1-oxo-15- methoxycarbonylmethyl- Rhodobacteriochlorin 13^1-(2- sulfoethyl)amide-17^3- (cycloRGDfK)amide potassium salt
conjugation yield [1]: 52%

3^1-oxo-15-methoxycarbonylmethyl-Rhodobacteriochlorin 13^1-(3-DTPA-amido-N-propyl)amide-17^3-(cycloRGDfK)amide
isolated mass ([1]; scale 0.1 mmol): 61 mg
isolated yield ([1]; scale 0.1 mmol): 37%

3^1-oxo-15- methoxycarbonylmethyl- Rhodobacteriochlorin 13^1-(2- sulfoethyl)amide-17^3- (GRGDSP)amide potassium salt
isolated mass ([1]; scale 0.35 mmol): 264 mg
isolated yield ([1]; scale 0.35 mmol): 58%

Copper(II) 3^1-oxo-15- methoxycarbonylmethyl- Rhodobacteriochlorin 13^1-(2- sulfoethyl)amide-17^3- (cycloRGDfK)amide potassium salt
step yield ([1]; late stage modification step): 86%
